The target of assay [1] is Bcl-xL (biotinylated pro-survival Bcl-2 family protein) (UniProt Q07817). The assay is described as follows: flow cytometry of individual X2 clones on E. coli, 6.25 nM Bcl-xL. Background: In flow cytometry, cells or beads pass a laser one at a time.
Assay [2] has as its target Mcl-1 (biotinylated pro-survival Bcl-2 family protein) (UniProt Q07820). The assay is described as follows: apparent Kd, bacterial surface display and flow cytometry.
For assay [3], the target named is Bcl-xL (biotinylated pro-survival Bcl-2 family protein) (UniProt Q07817). The description is as above.
Assay [4] concerns the target Mcl-1 (biotinylated pro-survival Bcl-2 family protein) (UniProt Q07820). Briefly: flow cytometry of individual M2 clones on E. coli, 1.25 nM Mcl-1.
Assay [5] has as its target Bcl-2 (biotinylated pro-survival Bcl-2 family protein) (UniProt P10415). The assay is described as follows: apparent Kd, bacterial surface display and flow cytometry.
Assay [6] addresses T1, Bcl-w (biotinylated pro-survival Bcl-2 family protein) (UniProt Q92843).
T1 sequence (biotinylated (co-expressed E. coli biotin ligase BirA), looked up): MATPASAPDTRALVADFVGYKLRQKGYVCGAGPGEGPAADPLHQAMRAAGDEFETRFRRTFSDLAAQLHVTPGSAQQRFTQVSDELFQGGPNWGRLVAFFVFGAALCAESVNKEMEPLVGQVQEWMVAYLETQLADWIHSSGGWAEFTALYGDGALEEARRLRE
The description is as above.

Protein sequences, listed by entry. Tags and fused reporters are not part of them. Residues count along the entry.
UniProt Q07817, residues 1-209: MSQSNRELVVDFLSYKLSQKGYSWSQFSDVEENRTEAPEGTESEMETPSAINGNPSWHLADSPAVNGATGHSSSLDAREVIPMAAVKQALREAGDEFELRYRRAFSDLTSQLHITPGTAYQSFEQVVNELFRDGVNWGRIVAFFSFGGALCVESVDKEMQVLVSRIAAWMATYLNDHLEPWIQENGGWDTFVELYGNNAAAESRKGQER
UniProt Q07820, residues 171-327: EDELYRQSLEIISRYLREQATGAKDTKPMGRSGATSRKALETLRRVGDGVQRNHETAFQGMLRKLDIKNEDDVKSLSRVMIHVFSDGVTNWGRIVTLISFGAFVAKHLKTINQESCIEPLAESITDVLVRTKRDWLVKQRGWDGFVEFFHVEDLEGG
UniProt P10415, residues 1-217: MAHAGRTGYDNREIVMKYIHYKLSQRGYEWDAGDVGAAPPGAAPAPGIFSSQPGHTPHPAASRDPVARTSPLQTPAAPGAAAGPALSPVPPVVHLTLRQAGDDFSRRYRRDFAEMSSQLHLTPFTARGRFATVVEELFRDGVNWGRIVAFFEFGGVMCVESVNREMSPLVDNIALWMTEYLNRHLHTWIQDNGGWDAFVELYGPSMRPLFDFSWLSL

No constants are given. Whether binding was seen depends on the method and setting. Some entries that bind do so weakly or less than the wild type.

B1: Bim BH3 14-mer variant X2-10 displayed on eCPX (peptide, not shown: large carriers; small tags and cut ends)
peptide: WVAQTLRRWGDEFN
For B1, the binding entry in assay [1] is reported as “binds”.

B2: Bim BH3 14-mer variant X2-5 displayed on eCPX (peptide, not shown: large carriers; small tags and cut ends)
peptide: WYAQILRRMGDEFN
On to B2, for which the binding result in assay [1] is reported as “binds”.

B3: Bim BH3 14-mer E151T displayed on eCPX (peptide, not shown: large carriers; small tags and cut ends)
peptide: WIAQTLRRIGDEFN
For B3, the binding result in assay [2] and in assay [3] was “binds” each time.

B4: Bim BH3 14-mer variant M2-8 displayed on eCPX (peptide, not shown: large carriers; small tags and cut ends)
peptide: WLAQELRRIGDEVN
Consider B4, for which the binding entry in assay [4] is “binds”.

B5: Bim BH3 14-mer variant M2-2 displayed on eCPX (peptide, not shown: large carriers; small tags and cut ends)
peptide: WVAQLLRRIGDEVN
As for B5, the binding entry in assay [2] and in assay [4] was “binds” each time.

B6: Bim BH3 14-mer variant M2-1 displayed on eCPX (peptide, not shown: large carriers; small tags and cut ends)
peptide: WIAQLLRRIGDEVN
In the case of B6, in assay [4], the binding result is on record as “binds”.

B7: Bim BH3 14-mer variant X2-3 displayed on eCPX (peptide, not shown: large carriers; small tags and cut ends)
peptide: WVAQWLRRWGDEFN
In the case of B7, the binding entry in assay [2], in assay [5], in assay [3], in assay [6] and in assay [1] was “binds” each time.

B8: Bim BH3 14-mer variant M2-4 displayed on eCPX (peptide, not shown: large carriers; small tags and cut ends)
peptide: WLAQLLRRIGDEIN
With B8, the binding entry in assay [2], in assay [5], in assay [3], in assay [6] and in assay [4] was “binds” each time.

B9: Bim BH3 14-mer E151I displayed on eCPX (peptide, not shown: large carriers; small tags and cut ends)
peptide: WIAQILRRIGDEFN
In the case of B9, in assay [3], the binding result was “binds”.

B10: Bim BH3 14-mer variant M2-3 displayed on eCPX (peptide, not shown: large carriers; small tags and cut ends)
peptide: WMAQILRRIGDEVN
In the case of B10, in assay [4], the binding entry is given as “binds”.

B11: Bim BH3 14-mer E151W displayed on eCPX (peptide, not shown: large carriers; small tags and cut ends)
peptide: WIAQWLRRIGDEFN
For B11, the binding result in assay [2] and in assay [3] was “binds” each time.

B12: Bim BH3 14-mer E151L displayed on eCPX (peptide, not shown: large carriers; small tags and cut ends)
peptide: WIAQLLRRIGDEFN
For B12, in assay [3], the binding result is “binds”.

B13: Bim BH3 14-mer variant X2-8 displayed on eCPX (peptide, not shown: large carriers; small tags and cut ends)
peptide: WLAQLLRRYGDEFN
For B13, the binding result in assay [2], in assay [5], in assay [3], in assay [6] and in assay [1] was “binds” each time.

B14: Bim BH3 14-mer variant X2-9 displayed on eCPX (peptide, not shown: large carriers; small tags and cut ends)
peptide: WIAQILRRWGDEFN
Take B14: the binding result in assay [1] is “binds”.
